No constants are given. Whether binding was seen depends on the method and setting. Binding seen in cells or lysates may run through a third protein. Some entries that bind do so weakly or less than the wild type. For some assays here: Tags and fused reporters may be left off the sequences shown. One block for each molecule: values may come before it.
What was measured:
[1] = biological target: T1, endogenous IKKε (human (endogenous in HCT116)) (UniProt Q14164); assay: co-IP; endogenous proteins; IKKε immunoprecipitated from HCT116 lysates (NP-40 buffer, 4 °C overnight, protein A/G agarose) with anti-IKKε antibody or control IgG, then immunoblotted
T1 sequence: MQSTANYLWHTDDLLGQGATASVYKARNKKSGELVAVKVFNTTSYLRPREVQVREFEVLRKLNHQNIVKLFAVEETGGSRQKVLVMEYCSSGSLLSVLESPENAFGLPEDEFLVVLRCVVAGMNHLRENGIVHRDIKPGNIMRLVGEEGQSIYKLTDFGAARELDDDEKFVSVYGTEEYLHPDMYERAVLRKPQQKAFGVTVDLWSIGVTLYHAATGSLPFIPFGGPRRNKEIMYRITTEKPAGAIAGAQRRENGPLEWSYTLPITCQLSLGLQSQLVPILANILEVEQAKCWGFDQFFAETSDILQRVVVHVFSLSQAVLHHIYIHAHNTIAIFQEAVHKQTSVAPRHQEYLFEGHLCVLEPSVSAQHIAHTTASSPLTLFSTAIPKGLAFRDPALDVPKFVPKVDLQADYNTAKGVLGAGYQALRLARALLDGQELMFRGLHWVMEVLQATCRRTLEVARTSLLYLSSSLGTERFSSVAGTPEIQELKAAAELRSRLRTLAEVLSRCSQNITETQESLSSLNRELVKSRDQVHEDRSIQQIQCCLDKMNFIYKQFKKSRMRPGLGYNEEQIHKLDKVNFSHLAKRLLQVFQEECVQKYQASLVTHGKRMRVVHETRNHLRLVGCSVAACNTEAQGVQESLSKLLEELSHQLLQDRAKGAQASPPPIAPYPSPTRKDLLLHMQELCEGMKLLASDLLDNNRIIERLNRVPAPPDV

By UniProt entry, the sequences of proteins in these tests, tags left out.
UniProt Q96AC1: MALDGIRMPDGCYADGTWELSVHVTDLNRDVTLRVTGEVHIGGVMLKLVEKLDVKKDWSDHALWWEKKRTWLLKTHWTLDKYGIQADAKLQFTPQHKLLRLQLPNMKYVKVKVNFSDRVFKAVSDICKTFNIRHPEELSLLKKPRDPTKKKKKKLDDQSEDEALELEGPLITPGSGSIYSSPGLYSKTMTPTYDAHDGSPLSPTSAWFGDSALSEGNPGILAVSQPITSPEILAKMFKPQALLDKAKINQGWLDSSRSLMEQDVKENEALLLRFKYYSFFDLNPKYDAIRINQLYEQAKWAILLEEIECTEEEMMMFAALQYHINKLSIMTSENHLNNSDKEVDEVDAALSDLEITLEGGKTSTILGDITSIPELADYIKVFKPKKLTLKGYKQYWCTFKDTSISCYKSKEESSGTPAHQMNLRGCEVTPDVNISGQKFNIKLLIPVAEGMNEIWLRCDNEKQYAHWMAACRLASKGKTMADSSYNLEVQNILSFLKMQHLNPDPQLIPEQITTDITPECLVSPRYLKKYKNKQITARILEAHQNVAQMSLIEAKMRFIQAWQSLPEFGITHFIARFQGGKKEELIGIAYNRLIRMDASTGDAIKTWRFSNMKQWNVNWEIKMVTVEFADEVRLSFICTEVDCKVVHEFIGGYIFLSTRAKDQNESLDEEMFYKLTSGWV

[2] = biological target: FLAG-tagged kindlin-2 (UniProt Q96AC1); assay: co-IP; HCT116 cells co-transfected with FLAG-tagged kindlin-2 and GFP-tagged IKKε for 48 h; total lysates (NP-40 buffer: 20 mM Tris-HCl pH 8.0, 137 mM NaCl, 1% NP-40, 10% glycerol, 2 mM EDTA) immunoprecipitated with FLAG-conjugated M2 beads, then immunoblotted

binding [1]: binds
Molecule: endogenous kindlin-2 (from UniProt Q96AC1 1-680)

binding [2]: binds
B1: GFP-tagged IKKε (enzyme, UniProt Q14164 1-716)
chain: T1 sequence

— PMC7019159
